For one molecule, binding results are on record in US20060073133A1 (published 2006).

The assay addresses T1, SAF-3/Fc fusion (human) (UniProt Q9Y286).
T1 sequence: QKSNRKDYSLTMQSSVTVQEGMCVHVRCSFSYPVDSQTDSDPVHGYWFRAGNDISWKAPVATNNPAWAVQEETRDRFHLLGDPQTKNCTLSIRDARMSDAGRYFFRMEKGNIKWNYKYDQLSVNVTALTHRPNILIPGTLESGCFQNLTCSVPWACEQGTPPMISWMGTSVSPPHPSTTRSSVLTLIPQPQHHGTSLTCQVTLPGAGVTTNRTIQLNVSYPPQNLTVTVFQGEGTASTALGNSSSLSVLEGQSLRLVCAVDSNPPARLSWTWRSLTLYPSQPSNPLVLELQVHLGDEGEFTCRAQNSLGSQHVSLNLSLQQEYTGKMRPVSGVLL
The assay can be described thus: time-resolved fluorescence immunoassay, SAF-3/Fc coated at 0.5 ug/mL, Eu-labelled anti-mouse IgG; rescreened by immunoassay and BIAcore. (SPR reads the build-up and loss of mass on a sensor chip optically.)

No constants are given. Whether binding was seen depends on the method and setting. Some results given as binding are weak or reduced against the parent protein; the word gives no strength. Where a sequence is shown, tags or fusion partners need not be part of it.

B1: monoclonal antibody 12B1 (antibody, IgG2a, V domains shown)
VH: QIQLQQSGPELVKPGASVKVSCKASGYSFTDYNIYWVKQSHGKSLEWIGYIDPYNDDTGYNQKFKGKATLTVDKSSSTAFMHLNSLTSEDSAVYYCASEGIHWGQGTLVTVS
VL: DIVMTQSQKFMSTSVGDRVSVTCKASQNVGTNVAWFQQKPGQSPKALIYSASYRYNGVPDRFTGSGSGTDFTLTISNVQSEDLADYFCQQYNIYPYTFGGGTKLEIK
notes: also called mAb 12B1; SAF-3 mAb (clone 12B1)
For the molecule B1, the binding result is given as “binds”.
